# Changes are numbered by the printed parent chain. Some results were stated once for a whole list of compounds, not compound by compound.
# B1: SEQ ID NO: 2: PPO from Aspergillus sp. Protein. (protein, listed as Aspergillus sp.)
# chain: MRLPCASSRAFRQVRAPLALLHRGQRHAVHTKQFDAAVIGGGITGLTAAYQLSRDPSCSKVTLYEKSSHLGGWLSSEQIPVPGGHVVFEYGPRTLRTSSPSCLPMMDLIMNLDLLDDVLICDKKSPAAQNRYIYYPDHLVRLPFPPTEGLLKTAWTLLMEPLFETFLYSAIFEKPKRAENTHILSRDESVADFVSRRFSPKISENLASAVMAGIFAGDVNRLSAEMAIGYVRELEKRYGSIVDGMMTQRASEMRAMPMDELLALESVAVPSHSDDRYWKSLRAVVTDASVLTLKNGLGQLTDAMAAQLRSSRNVEVVTGTEVTSLSQNPKTQDLTIGFGKNESRTHNRVIATHAPSSLARQIQNTKVGVVPSDTIRDLGQNNYAVTVMVVNLYYEDPDLVPVEGFGYLLPSSVPFEQNPERALGVIFGSQSSEGQDTAPGTKLTVIMGGHLWDGWSESDYPDPDKAIEMAQALLHRHLGIKTAPSVARARLLRDAIPQYTVGHLSRMKELSHSVRSDFHKRLTLAGAWYGTVGIGVVDCIRQGYLASSYGVGSKKLGPGNSRRPWTKHDFHNWELEGGIATSPVRFDNVHVTERQHY
# B2: SEQ ID NO: 9: PPO from Aspergillus sp. fused to cTP. Chimeric Protein; cloned from SEQ ID NO: 2 (protein)
# chain: MELSLLRPTTQSLLPSFSKPNLRLNVYKPLRLRCSVAGGMRLPCASSRAFRQVRAPLALLHRGQRHAVHTKQFDAAVIGGGITGLTAAYQLSRDPSCSKVTLYEKSSHLGGWLSSEQIPVPGGHVVFEYGPRTLRTSSPSCLPMMDLIMNLDLLDDVLICDKKSPAAQNRYIYYPDHLVRLPFPPTEGLLKTAWTLLMEPLFETFLYSAIFEKPKRAENTHILSRDESVADFVSRRFSPKISENLASAVMAGIFAGDVNRLSAEMAIGYVRELEKRYGSIVDGMMTQRASEMRAMPMDELLALESVAVPSHSDDRYWKSLRAVVTDASVLTLKNGLGQLTDAMAAQLRSSRNVEVVTGTEVTSLSQNPKTQDLTIGFGKNESRTHNRVIATHAPSSLARQIQNTKVGVVPSDTIRDLGQNNYAVTVMVVNLYYEDPDLVPVEGFGYLLPSSVPFEQNPERALGVIFGSQSSEGQDTAPGTKLTVIMGGHLWDGWSESDYPDPDKAIEMAQALLHRHLGIKTAPSVARARLLRDAIPQYTVGHLSRMKELSHSVRSDFHKRLTLAGAWYGTVGIGVVDCIRQGYLASSYGVGSKKLGPGNSRRPWTKHDFHNWELEGGIATSPVRFDNVHVTERQHY
# B3: SEQ ID NO: 3: PPO from Fusarium sp. Protein. (protein, listed as Fusarium sp.)
# chain: MSRRRAESTAVALLSSPAKSHLQPPLRRLDGIRSLSTSSALARRRPIVACNYTQSFNNGRTFVSQAKDANIAVLGGGLTGLTAAYYLAKKLPSTAKITLYESSDRLGGWIKTDRVPVDIEGKSGTLSFERGARSLSSLVGNTFRFDDLVLYDLALDLGLAINSPSQQPRYIYYPDHLVPTPPNISIFDMLREPLYLEIIGASLGLGINSLRKRTLPSKDYSVSEWLYAVSNSRKGIGNLASAMMHGIYGGDIHKLSARCVLDRLYWGWYLPNPGLSVRPMPVAEQALLETLGQDKQIQKMALEPRSALVDFGDKGMESLPQALSAALREQPNITIKTGEAVQDVVYNKANQQVHITSSNAKDNSKHNSKVYDKVISTLSAQDIALLAGNKLPSLSTAHSVSVMTVNIWFPQENLKPPGFGYLIPNSVAPELNPEHALGVFFDSDVQTRSKDEPAGTKLFVLMGGHYYDRPDVTPPTEEEAIIQARNLLERHLGIPRDAPAYATANFARECIPQHYVGHQDRLKAAHTELTRNFGGRLAVAGGSFTRIGAVASLRAGYDAATAAKKGLEATGLEYLNDIQQFSVVATSHIPVRHFK
# B4: SEQ ID NO: 10: PPO from Fusarium sp. fused to cTP. Chimeric Protein; cloned from SEQ ID NO: 3 (protein)
# chain: MELSLLRPTTQSLLPSFSKPNLRLNVYKPLRLRCSVAGGMSRRRAESTAVALLSSPAKSHLQPPLRRLDGIRSLSTSSALARRRPIVACNYTQSFNNGRTFVSQAKDANIAVLGGGLTGLTAAYYLAKKLPSTAKITLYESSDRLGGWIKTDRVPVDIEGKSGTLSFERGARSLSSLVGNTFRFDDLVLYDLALDLGLAINSPSQQPRYIYYPDHLVPTPPNISIFDMLREPLYLEIIGASLGLGINSLRKRTLPSKDYSVSEWLYAVSNSRKGIGNLASAMMHGIYGGDIHKLSARCVLDRLYWGWYLPNPGLSVRPMPVAEQALLETLGQDKQIQKMALEPRSALVDFGDKGMESLPQALSAALREQPNITIKTGEAVQDVVYNKANQQVHITSSNAKDNSKHNSKVYDKVISTLSAQDIALLAGNKLPSLSTAHSVSVMTVNIWFPQENLKPPGFGYLIPNSVAPELNPEHALGVFFDSDVQTRSKDEPAGTKLFVLMGGHYYDRPDVTPPTEEEAIIQARNLLERHLGIPRDAPAYATANFARECIPQHYVGHQDRLKAAHTELTRNFGGRLAVAGGSFTRIGAVASLRAGYDAATAAKKGLEATGLEYLNDIQQFSVVATSHIPVRHFK
# B5: SEQ ID NO: 11: PPO from Fusarium sp. fused to cTP. Chimeric Protein; cloned from SEQ ID NO: 4 (protein)
# chain: B4 chain with L527P
# B6: SEQ ID NO: 6: PPO from Rhizopus sp. Protein. (protein, listed as Rhizopus sp.)
# chain: MSSVAILGGGISGLSAAYYLARMAPPTTKITLIEGKKRLGGWIESRRVTPGHYDNIHQLPKNNSKENTILFEAGPRTLRPEGSNGAILLEMIRHLELNNENLMSVSKSHPSARHRYIYYKDKINTLPSDLQSFLLNKPPVLKSVPLAALLEPLKPSRFDKDGIAKDGIQDESIYSFMTRRFNEHTAIHLMGAVIHGIYAGDIKSLSLQSTLRSLYEAERIYGSAVLGMMKGASQVTTSVRERGMAARSRKEDPEWFGRMEKMSVIGFKSGMDTLPHQITSWLEQCPNVEVITDDPAEHIEIAHENKIKTQKGKTVHADHIISTLPSPVLERLVQHQPVLPHLSYNPSADVAVVNLAYSPDEMKLQYDGFGFLTPHRDTPYGNPLPGTLGVVFDSNALPIESERAVKLTAMIGGSDWKDAFGNVPIDELEPKVALDYTRKAVGTFLDIHAEPRYSMVNLQKQCIPQYLVGHQDRMLSLHHAIKKNYGHALSVSGASYLGVSVPDCIKNSRMLVEELLVSGALGSRQKVVTGLGKLEEQPTVDEMRDNARLSRGNTSVIMKS
# Test system: transgenic Arabidopsis plants
# Type: in vivo
# Conditions: against the PPO-inhibitor herbicides Strike and/or Aurora
# Description: (SEQ ID NO: 8 was cloned from SEQ ID NO: 1, SEQ ID NO: 9 was cloned from SEQ ID NO: 2, SEQ ID NO: 10 was cloned from SEQ ID NO: 3, SEQ ID NO: 11 was cloned from SEQ ID NO: 4, SEQ ID NO: 12 was cloned from SEQ ID NO: 5, SEQ ID NO: 13 was cloned from SEQ ID NO: 6 SEQ ID NO: 14 was cloned from SEQ ID NO: 7). […] FIG. 1B summarizes the results of the three experiments described hereinabove.
row,Molecule,level of tolerance conferred to the transgenic plants relative to WT
1,B1,more than 10^4 times
2,B2,more than 10^4 times
3,B3,more than 10^4 times
4,B4,more than 10^4 times
5,B5,more than 10^4 times
6,B6,more than 10^4 times
